Source: publication doi:10.1101/2025.02.17.637997, “Phosphorylation-State Modulated Binding of HSP70: Structural Insights and Compensatory Protein Engineering” (bioRxiv, 2025)

System: CHIP-TPR (21–154)
Test: X-ray crystal structures of CHIP-TPR with HSP70 peptides
Parameters: species or system Hs
Details: crystal structures 9DYA (EEVD) and 9DYB (pEEVD)

GP[pT]IEEVD [pT-HSP70 peptide, phosphorylated HSP(C)70 peptide]
change of hydrogen bonds on phosphorylation: eliminates a hydrogen bond; also recorded: removes two hydrogen bonds

“Also recorded” adds a separate entry of the source. Square brackets hold non-standard residues; d marks the D form. Ends that are not written are not given here. pT = C[C@@H](OP(=O)(O)O)[C@H](N)C(=O)O
